Measurements: the supplement of paper PMC7858590
“And” between values parts separate entries of the source, which are not always exact repeats. Equal entries are not always repeated. ± gives the standard deviation of the averaged measurements. Over roughly 3,800 compounds, “cell shape (eccentricity) Z-score vs DMSO control” has its median near 1.1; the lowest 2% begin near -4.7. Some of the results follow. Residues, ends and D or L forms follow the SMILES beside them.

What follows are compounds tested on human monocyte-derived macrophages (M0) (assay: cell shape (eccentricity) Z-score vs DMSO control; higher = more elongated, M2-like morphology). Settings: 20 µM; 24 h; macrophage state: M0 (M-CSF).

Row | Structure (SMILES) | cell shape (Z-score)
1 | CCCCC[C@@H](O)[C@H]1C(=O)O[C@H](C)[C@@H](O)/C=C/C=C/C=C/C=C/C=C(\C)[C@@H](O)C[C@H](O)C[C@H](O)C[C@H](O)C[C@H](O)C[C@H](O)C[C@@H]1O | -1.02
2 | Cn1cc(-c2ccc3nnc(Sc4ccc5ncccc5c4)n3n2)cn1 | 2.75
3 | C[C@H]1[C@H](C)CC[C@]2(C(=O)O)CC[C@]3(C)C4=CCC5C(C)(C)[C@@H](O[C@@H]6O[C@H](C(=O)O)[C@@H](O)[C@H](O)[C@H]6O)CC[C@]5(C)C4CC[C@@]3(C)[C@H]12 (some centres not stated) | 0.578
4 | CC(C)N1CCN(c2ccc(C(=O)c3c(-c4ccc(O)cc4)sc4cc(O)ccc34)cc2)CC1 | 1.37
5 | C/C(=C/CCC(CO)C1CCC2(C)C3CCC4C(C)(C)C(OC5OC(CO)C(O)C(O)C5O)CC(O)C45CC35CCC12C)COC1OC(CO)C(O)C(O)C1O (configuration not stated) | 1.23
6 | CC(=O)Nc1ccc(O)cc1 | -2.38
7 | COc1cc(Nc2cc(C#N)nc3cc(OCCCN4CCN(C)CC4)c(OC)cc23)c(Cl)cc1Cl | 37.1
8 | C=C[C@@]1(C)CCC2=C(C1)C(=O)CC1[C@](C)(C(=O)O)CCC[C@]21C (some centres not stated) | -0.98
9 | c1ccc2c(Oc3nc(Nc4ccc(N5CCOCC5)cc4)c4ncn(C5CCCCC5)c4n3)cccc2c1 | 4.3 and 9.74
10 | COc1c2c(c(O)c3c(=O)c4c(OC)c(O)ccc4oc13)C1CCCC(C)(O2)O1 (configuration not stated) | 0.966
11 | CN1CCN(C(c2ccccc2)c2ccccc2)CC1 | 1.87
12 | CC(C)C(=O)c1c(C(C)C)nn2ccccc12 | 1.96
13 | Nc1ccc(-c2cccs2)cc1NC(=O)c1ccc(C(=O)NCCc2ccncc2)cc1 | 1.41
14 | COC(=O)[C@H](Cc1ccccc1)NC(=O)[C@@H](N)CC(=O)O (H-Asp-Phe-OMe) | 0.788
15 | COc1ccc(/C=C2\Oc3cc(O)cc(O)c3C2=O)cc1O | -0.178
16 | CN1C2CC[C@H]1C[C@@H](OC(=O)C(O)c1ccccc1)C2 (some centres not stated) | -0.751
17 | CS(=O)(=O)Oc1ccc2c(NC(N)=O)c(C(=O)c3ccc(Cl)cc3Cl)oc2c1 | 3.52
18 | CC1(C)C2CC[C@]3(C)C(C(=O)C=C4[C@H]5C[C@@](C)(C(=O)O)CC[C@]5(C)CC[C@]43C)[C@@]2(C)CC[C@@H]1O (some centres not stated) | 0.344
19 | COc1ccccc1N1CCN(CC(O)COc2cccc3ccccc23)CC1 (configuration not stated) | 2.28

Row | Structure (SMILES) | cell shape (Z-score)
20 | CC(O)(CC(=O)O)CC(=O)OCC1OC(Oc2c(-c3ccc(O)cc3)oc3cc(O)cc(O)c3c2=O)C(O)C(O)C1O (configuration not stated) | -0.287 ± 1.1
21 | CN(C)CCCNc1c2c(=O)n(C)c(=O)nc-2n(C)c2ccccc12 | -2.4
22 | C[C@]12CCC(=O)C=C1CCC1C2C(=O)C[C@@]2(C)C1CC[C@]2(O)C(=O)CO (some centres not stated) | -0.324
23 | CCC[C@H](NC(=O)/C(C#N)=C/c1cccc(Br)n1)c1ccccc1 | -4.73
24 | COc1cc(OC)c(C(=O)CCCN2CCCC2)c(OC)c1 | -0.326
25 | CC1Nc2ccc(Cl)cc2S(=O)(=O)N1 (configuration not stated) | -3.56
26 | CCC(=O)c1ccc(O)cc1 | -0.827
27 | COc1cc2c3cc1Oc1cc(ccc1O)C[C@@H]1c4c(cc(OC)c(O)c4Oc4ccc(cc4)C[C@@H]3N(C)CC2)CC[N+]1(C)C | 2.6
28 | Oc1ccc(Cl)c2cccnc12 | 2.18
29 | COc1cc(C(=O)N2CCC(N3CCN(C)CC3)CC2)ccc1Nc1ncc2c(n1)N(C)c1ccccc1C(=O)N2C | 8.88
30 | Cc1ccsc1C(=CCCN1CCC[C@@H](C(=O)O)C1)c1sccc1C | 0.0539
31 | CCCCC(=O)O[C@]1(C(=O)CO)CCC2C3CCC4=CC(=O)CC[C@]4(C)C3[C@@H](O)C[C@@]21C (some centres not stated) | -1.46
32 | O=c1[nH]cc(F)c(=O)[nH]1 | 0.695 and 1.21
33 | CC1(C)CCC(C)(C)c2cc(C(=O)Nc3ccc(C(=O)O)cc3)ccc21 | 9.3
34 | CN(C)CC[C@H](CSc1ccccc1)Nc1ccc(S(=O)(=O)NC(=O)c2ccc(N3CCN(Cc4ccccc4-c4ccc(Cl)cc4)CC3)cc2)cc1[N+](=O)[O-] | 7
35 | CN(C)CCCN1c2ccccc2Sc2ccccc21 | -2.99
36 | Cc1ccc(-c2ncc(Cl)cc2-c2ccc(S(C)(=O)=O)cc2)cn1 | -0.727
37 | COC(=O)C1=CO[C@@H](O[C@@H]2O[C@H](CO)[C@@H](O)[C@H](O)[C@H]2O)[C@@H]2[C@@](C)(O)[C@@H](O)C[C@]12O | 1.24
38 | N#Cc1cc2nc(O)c(O)nc2cc1[N+](=O)[O-] | -1.55

Row | Structure (SMILES) | cell shape (Z-score)
39 | Nc1ccc(S(=O)(=O)c2ccc(N)cc2)cc1 | 3.62
40 | O=C(O)c1c(O)cc(OC2OC(CO)C(O)C(O)C2O)cc1/C=C/c1ccccc1 (configuration not stated) | 4.21
41 | OC(c1ccccc1)C1CCN(CCc2ccccc2)CC1 (configuration not stated) | 1.31
42 | CC(C)(O)CC[C@@H](O)[C@](C)(O)[C@H]1CC[C@@]2(O)C3=CC(=O)[C@@H]4C[C@@H](O)[C@@H](O)C[C@]4(C)C3CC[C@]12C (some centres not stated) | 1.59
43 | COC1=CC(=O)O[C@@H](CCc2ccccc2)[C@H]1O | 0.785 ± 1.3
44 | COc1ccc(-c2cc(=O)c3c(O)cc(O)cc3o2)cc1O | 5.34
45 | CN(C)CCCN1c2ccccc2CCc2ccc(Cl)cc21 | 1.86
46 | CC(C)=CCc1c2c(c3occ(-c4ccc(O)c(O)c4)c(=O)c3c1O)C=CC(C)(C)O2 | 0.747
47 | O=c1cc(-c2ccc(O)c(O)c2)oc2cc(O)c(C3OC(CO)C(O)C(O)C3O)c(O)c12 (configuration not stated) | -0.519
48 | CC(C)=CCC/C(C)=C/CCC1(C)Oc2c(c(O)cc3c2CN(C(CCC(=O)O)C(=O)O)C3=O)CC1O (configuration not stated) | 0.11
49 | COc1cc(C2OCC3(OC4OC(CO)C(O)C(O)C4O)C(c4ccc(O)c(OC)c4)OCC23)ccc1O (configuration not stated) | 3.4
50 | CC(C)(O)CCC(=O)C(C)(O)C1C(O)CC2(C)C3CC=C4C(CC(O)C(OC5OC(CO)C(O)C(O)C5O)C4(C)C)C3(C)C(=O)CC12C (configuration not stated) | -2.09
51 | O=C1CN2Cc3c(ccc(Cl)c3Cl)N=C2N1 | -1.23
52 | CC1=CC(=O)C(C(C)C)=CC1=O | -0.564
53 | O=[N+]([O-])c1cccc2cn[nH]c12 | 4.42
54 | CC(C)CC1NC(=O)C2CCCN2C1=O (configuration not stated) | 2.84
55 | Cc1onc(-c2ccccc2Cl)c1C(=O)N[C@@H]1C(=O)N2[C@@H]1SC(C)(C)[C@@H]2C(=O)O | 7.79
56 | C[C@]12CCC3c4ccc(O)cc4CCC3C1CC[C@@H]2OC(=O)CCC1CCCC1 (some centres not stated) | 2.17
57 | COC(=O)C1CC2=CC(=O)CCC2(C)C23OC2CC2(C)C(CCC24CCC(=O)O4)C13 (configuration not stated) | 0.516
